Data published in the supplement of paper PMC12889115.
This is one part of the list. Values are raw readings; no control value is given beside them.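 First-pass screen: polymyxin B was added at a level that permeabilizes the Salmonella outer membrane while sparing the inner membrane. DMSO wells, with and without polymyxin B, defined maximum growth. Because plates differed from one another, each plate's data were ranked separately and the compounds with the lowest OD600 were carried forward as hits.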

Test system: Salmonella enterica serovar Typhimurium SL1344
Assay: bacterial growth OD600 after 18 h with compound and polymyxin B; higher = more bacterial growth (less inhibition)
Conditions: 50 µM, Mueller-Hinton broth

Structure (SMILES)	bacterial growth OD600 (polymyxin B 1 µg/mL)	bacterial growth OD600 (polymyxin B 0.75 µg/mL)
Cc1noc(C)c1CCC(=O)NC1CCCN(c2ccc(C(F)(F)F)cn2)C1 (stereo not given)	0.84	
CN(C)CCC1CN(C(=O)CCc2ccsc2)CCO1 (stereo not given)		0.908
COc1cc(C(=O)N(C)CCOc2ccc(C)cc2)ccc1OC1CCN(C(C)=O)CC1		0.887
COC(=O)c1ccc(C(=O)N2CCc3onc(-c4ccccc4F)c3C2)nc1		0.922
CN(C(=O)CC(c1ccccc1)c1cccc(Cl)c1)C1CCOCC1 (stereo not given)	0.01	
CCOC(=O)C1(Cc2ccc(F)cc2)CCCN(C(=O)c2ccc(F)cc2)C1 (stereo not given)	0.726	
COCC(=O)Nc1cc(C(=O)N[C@H](C)c2ccc(OC)cc2)cc2nc(-c3cccnc3)n(C)c12		0.8
Cc1nn(C)c(C)c1CN(C(=O)Cn1nnnc1CN1CCC(C)CC1)C1CC1	0.962	
Cc1ncc2c(c1CNC(=O)/C=C/c1ccccc1F)CCN(C(=O)/C=C/C(C)C)C2		0.853
Cc1csc(CNC(=O)CC(c2cccc(O)c2)c2cccc(Cl)c2)n1 (stereo not given)		-0.005
Cc1cccc(C(=O)N2CCC(C3(CCC(C)C)NC(=O)N(Cc4ccccn4)C3=O)CC2)c1C (stereo not given)		0.929
CC(C)n1cc(CNC2CCCc3nc(-c4ccccc4)ncc32)cn1 (stereo not given)	0.846	
CCCN(Cc1cnc(S(=O)(=O)C(C)C)n1Cc1ccccc1F)CC1CC1	0.006	
COC(=O)C1CCCCN1C(=O)c1c(OC)cc(=O)n2c1CCN(Cc1cccc(Cl)c1)CC2 (stereo not given)		0.826
Cc1ccc2oc(C(=O)N3CCN(c4cccc(C)n4)CC3)c(C)c2c1	0.404	
COCC(=O)Nc1cc(C(=O)NCCCOC(C)C)c2c(c1)ncn2Cc1ccc(F)cc1		0.828
Cc1nc(N2CCC(C(=O)NCCCn3ncc4ccccc43)CC2)nc2ccc(C(C)C)cc12		0.627
Clc1cccc(CN2CCN(c3nc4nonc4nc3NC3CC3)CC2)c1	0.891	
Fc1ccc(F)c(CN(CC2CCN(C3CCCC3)CC2)CC2CCCO2)c1 (stereo not given)	1.04	
O=C(c1cccs1)N1CCC(C2CCN(Cc3cccnc3)CC2)C1 (stereo not given)		0.83

Exported with bars between the fields: 2 of the compounds above
Structure (SMILES) | bacterial growth OD600 (polymyxin B 1 µg/mL) | bacterial growth OD600 (polymyxin B 0.75 µg/mL)
Cc1ccc2oc(C(=O)N3CCN(c4cccc(C)n4)CC3)c(C)c2c1 | 0.404 | 
Clc1cccc(CN2CCN(c3nc4nonc4nc3NC3CC3)CC2)c1 | 0.891 | 
